Test results from PubChem BioAssay AID540256 (National Center for Advancing Translational Sciences (NCATS), 2011).
In all, about 300,000 compounds went through this assay and about 3,700 (1.2%) were called active. Inconclusive results, whose numbers are uncertain, are shown with a selection of clear calls. The call rests on the fitted dose curve; tested in HEK293 cells. Where the call is inconclusive, the potency comes from a doubtful curve fit.

Test: qHTS for Inhibitors of binding or entry into cells for Lassa Virus; further: nearly all actives have a fitted effect of over 50% in size
Details: Lassa virus pseudotype entry inhibition, cell reporter; series mostly up to 37.9 µM
Potency means the concentration at half of the fitted maximal effect.

Row | Structure (SMILES) | Potency
1 | CC(C)(C)NCC(O)COc1ccccc1C(C)(C)C (centres undefined) | inconclusive: 32.6 µM [inhibitor, single point]
2 | Cc1nc(N)nc(N(C)c2ccccc2)c1Br | inconclusive: 3.16 µM [inhibitor, full curve]
3 | CCOC(=O)N1CCN(C(=O)CSc2nnc(-c3cc(OC)cc(OC)c3)o2)CC1 | inactive
4 | CC(C)(C)c1cnnn1-c1ccc(/C=N/Nc2ccc([N+](=O)[O-])cc2)cc1 | inconclusive: 29.1 µM [inhibitor, single point]
5 | O=C(Nc1ccc2nn(-c3ccccc3)nc2c1)c1cccs1 | inactive
6 | Cc1ccc(S(=O)(=O)NCC(c2ccc3c(c2)OCO3)N2CCN(c3ccccc3)CC2)cc1 (centres undefined) | inconclusive: 2.51 µM [inhibitor, partial curve, poor fit]
7 | C[C@]12CCC(=O)C=C1CCC1C2CC[C@@]2(C)C1CC[C@]2(C)O (some centres undefined) | inconclusive: 31.6 µM [inhibitor, single point]
8 | C=CCn1c(SCC(=O)Nc2cccc(S(N)(=O)=O)c2)nc2sc(C)c(C)c2c1=O | inconclusive: 11.2 µM [inhibitor, partial curve, poor fit]
9 | COc1ccc(NC(=O)COc2ccc(C)cc2)c([N+](=O)[O-])c1 | inactive
10 | COc1ccc(CCNC(=O)c2c(C)oc3ncnc(N4CCOCC4)c23)c(OC)c1 | inconclusive: 22.4 µM [activator, single point]
11 | CCn1c(=O)sc2cc(NS(=O)(=O)c3ccc(C)cc3)ccc21 | inconclusive: 7.94 µM [inhibitor, partial curve, poor fit]
12 | Cc1ccccc1NC(=O)c1ccc(CSc2ncccn2)cc1 | inactive
13 | CC1=C(C(=O)OCCOc2ccccc2)C(c2ccsc2)NC(=O)N1C (centres undefined) | inconclusive: 11.2 µM [inhibitor, single point]
14 | CCOc1ccccc1C(=O)NC1CCN(Cc2ccccc2)CC1 | inactive
15 | CC(=O)c1ccc(S(=O)(=O)N2CCN(CC#N)CC2)cc1 | inconclusive: 0.794 µM [activator, full curve, poor fit]
16 | CCOC(=O)c1ccccc1NC(=O)Cc1ccc(S(=O)(=O)N2CCCC2)s1 | inconclusive: 8.91 µM [inhibitor, partial curve, poor fit]
17 | CCCOc1ccccc1C1CC(=O)NC(C)=C1C(=O)OCC(C)C (centres undefined) | inconclusive: 3.16 µM [inhibitor, partial curve, poor fit]
18 | COc1ccccc1-c1ccc(Nc2cccc(C(F)(F)F)c2)nn1 | inactive
19 | O=C(c1cc(-c2ccc(O)cc2)on1)N1CCCC1 | inconclusive: 1.12 µM [inhibitor, full curve, poor fit]
20 | CC(=O)Nc1ccc(OC(=O)C(CCS(C)(=O)=O)N2C(=O)c3ccccc3C2=O)cc1 (centres undefined) | inconclusive: 1.26 µM [inhibitor, partial curve, poor fit]
21 | COc1ccc(/C=C/C(=O)Nc2sc(C)c(C)c2C(=O)O)cc1 | inconclusive: 35.5 µM [inhibitor, single point]
22 | CCOC(=O)c1ccc(NC(=O)c2ccccc2[N+](=O)[O-])cc1 | inconclusive: 5.62 µM [activator, single point]
23 | NS(=O)(=O)c1ccc(CCNC(=S)Nc2ccc(F)cc2)cc1 | inactive

Row | Structure (SMILES) | Potency
24 | CC(CCc1ccccc1)NC(=O)Cc1ccc(Br)cc1 (centres undefined) | inconclusive: 0.708 µM [inhibitor, single point]
25 | CC(C)Cc1nn2c(=O)cc(COC(=O)c3ccc(NC(=O)CCc4ccccc4)cc3)nc2s1 | inconclusive: 3.16 µM [activator, single point]
26 | COc1ccc(C(=O)Nc2ccc(NC(=O)c3ccccn3)cn2)cc1 | inconclusive: 1.78 µM [inhibitor, partial curve, poor fit]
27 | O=C(Nc1nnc(S(=O)(=O)N2CCOCC2)s1)c1ccccc1F | inactive
28 | Nc1ccc(-c2nc3c(Cl)c(N)ccc3[nH]2)cc1 | inactive
29 | Cc1ccc(S(=O)(=O)Cc2ccc(C(=O)NCCc3ccc(Cl)cc3)o2)cc1 | inconclusive: 25.1 µM [inhibitor, single point]
30 | O=C(Nc1ccc(C(F)(F)F)cc1Cl)c1ccc(Cn2cc(Br)cn2)o1 | inactive
31 | COc1ccc(/C=C2/C(=O)N=C(N)N2C)cc1OC | inconclusive: 10 µM [activator, partial curve, poor fit]
32 | Brc1cccc(-c2nnc(CN3CCN(c4ccccn4)CC3)o2)c1 | inactive
33 | O=[N+]([O-])c1cccnc1N/N=C/c1ccccc1O | inconclusive: 11.2 µM [inhibitor, single point]
34 | CN(C)c1ccc(CNC(=O)c2cnc3sc(N4CCOCC4)nn3c2=O)cc1 | inconclusive: 7.08 µM [inhibitor, full curve]
35 | Cc1ccc(NC(=O)/C(C#N)=N/Nc2ccc(C(=O)O)cc2)c(C)c1 | inactive
36 | Cc1ccccc1NC(=O)c1ccc([N+](=O)[O-])o1 | inactive
37 | CCOc1ccc(-c2nc(SCC(=O)c3ccccc3)n[nH]2)cc1 | inconclusive: 28.2 µM [inhibitor, partial curve, poor fit]
38 | CCC(=O)Nc1cccc(C(=O)/C=C/c2ccccc2)c1 | active: 10 µM
39 | Cc1nn(-c2ccccc2Cl)c(Cl)c1/C=N/Nc1cccc(C(=O)O)c1 | inconclusive: 0.447 µM [inhibitor, full curve, poor fit]
40 | COc1ccc(-c2noc(N(c3cccc(Cl)c3)c3nc(-c4ccc(OC)c(OC)c4)no3)n2)cc1OC | inactive
41 | CCCc1ccc(S(=O)(=O)NCCc2ccncc2)cc1 | inconclusive: 0.13 µM [inhibitor, partial curve, poor fit]
42 | Cn1nc(-c2ccccc2F)c2cc(C(=O)NCCc3ccc(Cl)cc3)sc21 | inconclusive: 20 µM [inhibitor, single point]
43 | CC1CCCC(NC(=O)CN2C(=O)NC(C)(c3cc(F)ccc3F)C2=O)C1C (centres undefined) | inconclusive: 8.91 µM [inhibitor, partial curve, poor fit]
44 | COc1ccc(C(=O)N/N=C(\C)CC(=O)N2CCN(C=O)CC2)cc1 | inconclusive: 4.47 µM [activator, full curve, poor fit]
45 | COc1ccc(C2CC(c3cccs3)=NN2S(C)(=O)=O)cc1OC (centres undefined) | inactive
46 | Cc1[nH]n(C)c(=O)c1C(=O)c1c(-c2ccccc2Cl)noc1C | inconclusive: 7.94 µM [activator, partial curve, poor fit]

Row | Structure (SMILES) | Potency
47 | CC(=O)CCc1ccc(Oc2nc(-c3cccnc3)nc3ccccc23)cc1 | inactive
48 | CN(CC(=O)Nc1ccc(F)c(F)c1F)C(=O)/C=C/c1ccco1 | inconclusive: 5.01 µM [inhibitor, single point]
49 | CCn1c(SCC(=O)Nc2cc(C)on2)nc2sc3c(c2c1=O)CCCC3 | inconclusive: 8.2 µM [inhibitor, partial curve, poor fit]
50 | Cc1cccc(C(=O)Nc2scc(CC(C)C)c2C(=O)O)c1 | inconclusive: 0.58 µM [inhibitor, single point]
51 | Cc1nc(N)sc1N=Nc1ccc(F)cc1 | inconclusive: 4.11 µM [activator, full curve, poor fit]
52 | CCOC(=O)CCCNC(=O)COC(=O)[C@@H]1CCCN1S(=O)(=O)c1ccc(Cl)cc1 | inconclusive: 3.55 µM [inhibitor, single point]
53 | Oc1ccc(N=Nc2ccc3c(c2)OCCO3)c2cccnc12 | inconclusive: 20 µM [inhibitor, partial curve, poor fit]
54 | COC(=O)c1sc(NC(=O)COc2ccc(OC)cc2)nc1C | inactive
55 | Cc1cccc(Nc2nnc(-c3ccc(C)c(S(=O)(=O)NCC4CCCO4)c3)c3ccccc23)c1 (centres undefined) | inconclusive: 25.1 µM [inhibitor, single point]
56 | CCOC(=O)c1ccc(N2C(=O)c3n[nH]c(-c4ccco4)c3C2c2ccc(O)c(OCC)c2)cc1 (centres undefined) | inconclusive: 10 µM [inhibitor, partial curve, poor fit]
57 | COc1ccc(NC(=O)CS(=O)(=O)Cc2nc(-c3ccc(C)cc3)oc2C)cc1 | inactive
58 | Cc1ccc(C(=O)Nc2ccccc2C(=O)NC(CC(=O)O)C(=O)O)cc1 (centres undefined) | inactive
59 | C=CCn1c(C)cc(C(=O)COc2ccc(C)nc2[N+](=O)[O-])c1C | inconclusive: 35.5 µM [inhibitor, single point]
60 | O=C(/C=C/c1ccccc1Cl)NCc1ccco1 | inconclusive: 18.3 µM [inhibitor, single point]
61 | COc1ccc(/C(O)=C2/C(=O)C(=O)N(CCN3CCOCC3)C2c2ccccn2)cc1OC (centres undefined) | inactive
62 | O=C1c2[nH]nc(-c3ccccc3O)c2C(c2ccccc2F)N1Cc1cccnc1 (centres undefined) | inconclusive: 1.12 µM [inhibitor, partial curve, poor fit]
63 | CC(=O)OC1N=C(c2ccccc2)c2cc(Br)ccc2N(C)C1=O (centres undefined) | inactive
64 | COC(=O)Nc1nnc(-c2ccncc2)s1 | inconclusive: 20.6 µM [activator, partial curve, poor fit]
65 | CCOC(=O)c1ccc(NC(=O)CCC(=O)N2Cc3ccccc3Oc3ncccc32)cc1 | inactive
66 | CC1CCC(C(C)C)C(OC(=O)CSc2nccc(=O)[nH]2)C1 (centres undefined) | inactive
67 | COc1ccc(OC)c(NC(=O)C2CCN(S(=O)(=O)c3ccc4c(c3)CCCC(=O)N4)CC2)c1 | inactive
68 | CCC(=O)N1CCN(c2ccc(NC(=O)c3cc4ccccc4o3)cc2Cl)CC1 | inconclusive: 22.4 µM [inhibitor, single point]
69 | O=C(NC1CCCCC1)c1ccc(CSc2nc3cccnc3n2Cc2ccc(F)cc2)cc1 | inactive

For reference, some entries already given:
Row | Structure (SMILES) | Potency
50 | Cc1cccc(C(=O)Nc2scc(CC(C)C)c2C(=O)O)c1 | inconclusive: 0.58 µM [inhibitor, single point]
51 | Cc1nc(N)sc1N=Nc1ccc(F)cc1 | inconclusive: 4.11 µM [activator, full curve, poor fit]
52 | CCOC(=O)CCCNC(=O)COC(=O)[C@@H]1CCCN1S(=O)(=O)c1ccc(Cl)cc1 | inconclusive: 3.55 µM [inhibitor, single point]
